Reference: the supplement of paper PMC10849652
This is one part of the list.

Chains of the proteins cited; added tags and fusions are not shown. Lines headed by an entry give the natural chain unless they say otherwise; changes in a name come on top.
UniProt Q9UG01, whole entry, looked up: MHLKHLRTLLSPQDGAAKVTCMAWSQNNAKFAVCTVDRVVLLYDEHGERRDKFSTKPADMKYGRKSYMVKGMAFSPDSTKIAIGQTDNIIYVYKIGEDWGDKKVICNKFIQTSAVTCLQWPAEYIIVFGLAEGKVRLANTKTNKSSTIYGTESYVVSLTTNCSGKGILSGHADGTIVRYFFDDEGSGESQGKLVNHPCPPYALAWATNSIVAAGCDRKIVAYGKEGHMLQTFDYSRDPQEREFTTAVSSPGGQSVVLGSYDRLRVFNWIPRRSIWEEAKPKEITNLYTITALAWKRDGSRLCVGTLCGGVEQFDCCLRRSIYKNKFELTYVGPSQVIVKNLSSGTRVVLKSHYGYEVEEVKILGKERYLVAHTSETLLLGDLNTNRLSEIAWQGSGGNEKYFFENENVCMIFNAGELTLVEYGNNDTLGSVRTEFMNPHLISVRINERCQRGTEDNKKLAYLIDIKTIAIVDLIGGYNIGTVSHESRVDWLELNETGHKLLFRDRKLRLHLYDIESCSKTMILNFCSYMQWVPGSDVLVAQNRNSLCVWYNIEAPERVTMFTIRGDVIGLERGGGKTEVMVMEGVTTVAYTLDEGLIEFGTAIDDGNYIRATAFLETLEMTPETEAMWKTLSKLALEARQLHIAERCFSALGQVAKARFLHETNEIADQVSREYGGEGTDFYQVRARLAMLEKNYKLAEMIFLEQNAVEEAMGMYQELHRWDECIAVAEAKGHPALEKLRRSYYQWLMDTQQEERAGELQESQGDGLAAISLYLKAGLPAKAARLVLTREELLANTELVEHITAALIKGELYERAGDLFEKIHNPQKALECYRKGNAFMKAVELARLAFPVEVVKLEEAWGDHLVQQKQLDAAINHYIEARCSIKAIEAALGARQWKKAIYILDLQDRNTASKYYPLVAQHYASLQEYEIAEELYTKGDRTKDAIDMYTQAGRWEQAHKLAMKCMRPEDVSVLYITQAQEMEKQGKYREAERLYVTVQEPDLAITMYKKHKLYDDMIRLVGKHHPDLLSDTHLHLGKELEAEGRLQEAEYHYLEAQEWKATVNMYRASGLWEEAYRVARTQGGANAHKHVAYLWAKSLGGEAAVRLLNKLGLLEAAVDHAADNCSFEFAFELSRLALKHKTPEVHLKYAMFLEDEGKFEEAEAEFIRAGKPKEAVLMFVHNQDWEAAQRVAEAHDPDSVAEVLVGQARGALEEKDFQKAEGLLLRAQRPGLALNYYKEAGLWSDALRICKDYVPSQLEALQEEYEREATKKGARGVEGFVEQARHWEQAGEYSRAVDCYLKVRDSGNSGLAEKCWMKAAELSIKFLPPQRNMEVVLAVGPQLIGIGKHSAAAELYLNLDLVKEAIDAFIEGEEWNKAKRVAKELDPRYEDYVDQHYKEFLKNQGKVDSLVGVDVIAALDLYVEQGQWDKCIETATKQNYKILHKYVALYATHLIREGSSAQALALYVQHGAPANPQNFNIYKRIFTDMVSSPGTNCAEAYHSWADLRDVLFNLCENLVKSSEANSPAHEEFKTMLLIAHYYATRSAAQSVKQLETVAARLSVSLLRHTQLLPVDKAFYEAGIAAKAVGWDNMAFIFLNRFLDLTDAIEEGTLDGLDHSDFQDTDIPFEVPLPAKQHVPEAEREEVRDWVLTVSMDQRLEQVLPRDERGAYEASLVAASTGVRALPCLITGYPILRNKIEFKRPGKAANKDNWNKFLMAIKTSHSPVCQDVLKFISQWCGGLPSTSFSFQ
UniProt Q8N201, whole entry, looked up: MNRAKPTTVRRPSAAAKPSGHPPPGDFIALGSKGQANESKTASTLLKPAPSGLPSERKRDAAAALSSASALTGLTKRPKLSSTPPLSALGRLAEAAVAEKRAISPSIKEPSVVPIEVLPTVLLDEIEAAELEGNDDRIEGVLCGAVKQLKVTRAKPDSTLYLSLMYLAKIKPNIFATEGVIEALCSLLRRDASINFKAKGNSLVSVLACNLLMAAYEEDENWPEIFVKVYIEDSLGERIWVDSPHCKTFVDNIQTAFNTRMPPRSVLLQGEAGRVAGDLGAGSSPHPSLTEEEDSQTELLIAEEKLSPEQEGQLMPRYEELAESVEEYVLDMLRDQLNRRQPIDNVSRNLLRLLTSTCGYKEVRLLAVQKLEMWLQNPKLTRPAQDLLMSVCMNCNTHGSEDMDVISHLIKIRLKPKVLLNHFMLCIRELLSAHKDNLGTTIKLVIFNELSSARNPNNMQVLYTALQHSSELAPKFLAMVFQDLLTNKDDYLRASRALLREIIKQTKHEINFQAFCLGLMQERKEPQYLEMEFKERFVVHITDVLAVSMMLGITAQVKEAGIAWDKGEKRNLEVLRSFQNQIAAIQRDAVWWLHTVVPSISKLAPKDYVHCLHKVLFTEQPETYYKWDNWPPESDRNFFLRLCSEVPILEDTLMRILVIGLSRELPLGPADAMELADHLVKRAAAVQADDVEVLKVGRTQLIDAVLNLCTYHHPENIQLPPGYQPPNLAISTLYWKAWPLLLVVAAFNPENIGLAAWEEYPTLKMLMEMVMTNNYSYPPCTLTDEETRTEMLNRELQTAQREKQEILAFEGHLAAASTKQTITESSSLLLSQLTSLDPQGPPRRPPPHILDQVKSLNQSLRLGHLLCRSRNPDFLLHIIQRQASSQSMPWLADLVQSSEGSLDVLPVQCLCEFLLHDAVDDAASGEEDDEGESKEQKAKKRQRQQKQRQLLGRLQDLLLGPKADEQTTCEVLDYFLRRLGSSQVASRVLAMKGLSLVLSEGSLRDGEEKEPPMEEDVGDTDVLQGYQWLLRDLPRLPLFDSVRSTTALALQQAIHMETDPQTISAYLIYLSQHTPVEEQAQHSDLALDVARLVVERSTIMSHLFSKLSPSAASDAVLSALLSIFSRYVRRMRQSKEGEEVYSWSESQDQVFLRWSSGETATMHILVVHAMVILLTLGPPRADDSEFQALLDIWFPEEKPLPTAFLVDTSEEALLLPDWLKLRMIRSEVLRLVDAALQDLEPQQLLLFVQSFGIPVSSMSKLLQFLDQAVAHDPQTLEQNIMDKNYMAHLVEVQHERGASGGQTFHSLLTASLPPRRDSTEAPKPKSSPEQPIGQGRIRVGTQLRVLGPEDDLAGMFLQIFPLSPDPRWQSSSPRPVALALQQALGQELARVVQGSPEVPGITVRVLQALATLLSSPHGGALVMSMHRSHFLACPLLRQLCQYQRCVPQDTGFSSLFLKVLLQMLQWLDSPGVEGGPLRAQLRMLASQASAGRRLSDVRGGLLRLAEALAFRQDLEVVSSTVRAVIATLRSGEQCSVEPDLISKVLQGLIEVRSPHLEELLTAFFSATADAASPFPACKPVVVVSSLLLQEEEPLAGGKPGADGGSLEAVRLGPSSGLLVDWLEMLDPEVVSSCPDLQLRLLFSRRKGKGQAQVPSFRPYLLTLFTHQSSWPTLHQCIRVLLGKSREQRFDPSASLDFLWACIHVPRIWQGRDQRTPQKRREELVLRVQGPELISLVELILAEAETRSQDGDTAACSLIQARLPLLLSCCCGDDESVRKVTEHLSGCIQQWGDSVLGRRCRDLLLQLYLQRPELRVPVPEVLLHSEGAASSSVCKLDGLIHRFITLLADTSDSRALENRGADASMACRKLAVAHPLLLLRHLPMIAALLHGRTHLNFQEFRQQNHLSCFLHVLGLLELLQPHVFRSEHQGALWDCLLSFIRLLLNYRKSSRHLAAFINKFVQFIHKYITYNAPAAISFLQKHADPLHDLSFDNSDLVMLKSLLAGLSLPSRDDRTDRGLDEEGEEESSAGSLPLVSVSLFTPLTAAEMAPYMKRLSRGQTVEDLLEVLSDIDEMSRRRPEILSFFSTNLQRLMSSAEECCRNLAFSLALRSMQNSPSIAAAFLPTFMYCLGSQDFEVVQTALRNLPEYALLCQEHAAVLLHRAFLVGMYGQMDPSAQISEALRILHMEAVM
UniProt Q12906, whole entry, looked up: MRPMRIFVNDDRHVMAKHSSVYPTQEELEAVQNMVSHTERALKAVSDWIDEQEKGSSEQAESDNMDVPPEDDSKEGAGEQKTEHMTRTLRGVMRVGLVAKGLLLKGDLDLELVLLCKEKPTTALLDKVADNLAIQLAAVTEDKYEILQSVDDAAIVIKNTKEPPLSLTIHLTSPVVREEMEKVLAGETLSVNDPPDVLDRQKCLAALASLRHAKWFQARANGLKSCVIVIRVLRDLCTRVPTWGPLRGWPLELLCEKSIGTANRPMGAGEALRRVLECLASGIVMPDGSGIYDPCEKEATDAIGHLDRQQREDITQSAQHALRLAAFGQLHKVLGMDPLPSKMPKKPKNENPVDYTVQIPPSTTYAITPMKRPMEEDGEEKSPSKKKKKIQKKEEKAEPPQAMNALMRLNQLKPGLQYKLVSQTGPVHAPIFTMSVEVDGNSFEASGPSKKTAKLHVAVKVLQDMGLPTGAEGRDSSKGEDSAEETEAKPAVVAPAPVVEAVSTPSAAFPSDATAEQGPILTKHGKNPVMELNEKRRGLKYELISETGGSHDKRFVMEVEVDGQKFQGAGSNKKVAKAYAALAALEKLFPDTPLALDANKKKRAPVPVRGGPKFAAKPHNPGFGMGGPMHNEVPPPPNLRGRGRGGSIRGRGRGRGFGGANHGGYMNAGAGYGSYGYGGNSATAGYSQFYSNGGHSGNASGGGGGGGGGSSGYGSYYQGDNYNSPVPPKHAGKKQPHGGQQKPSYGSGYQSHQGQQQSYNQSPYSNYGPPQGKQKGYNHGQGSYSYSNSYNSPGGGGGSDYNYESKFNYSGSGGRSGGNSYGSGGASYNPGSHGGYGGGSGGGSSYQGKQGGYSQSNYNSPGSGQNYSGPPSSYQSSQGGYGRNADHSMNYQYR
UniProt Q9NSE4: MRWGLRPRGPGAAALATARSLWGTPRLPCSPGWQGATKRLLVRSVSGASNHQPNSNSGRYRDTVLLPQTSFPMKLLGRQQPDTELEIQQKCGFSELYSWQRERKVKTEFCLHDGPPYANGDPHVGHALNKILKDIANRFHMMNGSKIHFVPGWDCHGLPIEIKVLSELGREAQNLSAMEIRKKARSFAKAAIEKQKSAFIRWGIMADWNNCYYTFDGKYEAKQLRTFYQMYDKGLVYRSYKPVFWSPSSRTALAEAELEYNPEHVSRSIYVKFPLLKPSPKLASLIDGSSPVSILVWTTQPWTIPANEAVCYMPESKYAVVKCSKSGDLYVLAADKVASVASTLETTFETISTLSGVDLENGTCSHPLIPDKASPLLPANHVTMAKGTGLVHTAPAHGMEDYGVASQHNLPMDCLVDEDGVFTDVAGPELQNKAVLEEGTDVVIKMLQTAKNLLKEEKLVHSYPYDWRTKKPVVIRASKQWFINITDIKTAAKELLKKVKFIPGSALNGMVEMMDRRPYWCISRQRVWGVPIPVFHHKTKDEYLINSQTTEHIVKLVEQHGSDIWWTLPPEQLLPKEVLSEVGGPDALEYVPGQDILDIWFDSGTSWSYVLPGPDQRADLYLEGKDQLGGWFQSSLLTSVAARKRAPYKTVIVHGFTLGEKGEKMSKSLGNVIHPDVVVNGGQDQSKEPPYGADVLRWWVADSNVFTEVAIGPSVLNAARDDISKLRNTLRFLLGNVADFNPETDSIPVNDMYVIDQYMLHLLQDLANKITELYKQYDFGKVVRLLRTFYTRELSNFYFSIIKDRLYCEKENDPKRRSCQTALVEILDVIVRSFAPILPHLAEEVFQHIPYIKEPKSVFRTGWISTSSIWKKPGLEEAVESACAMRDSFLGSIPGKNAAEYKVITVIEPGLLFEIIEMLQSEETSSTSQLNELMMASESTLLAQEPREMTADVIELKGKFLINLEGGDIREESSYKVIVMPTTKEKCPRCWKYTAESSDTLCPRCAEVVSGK
UniProt P38646: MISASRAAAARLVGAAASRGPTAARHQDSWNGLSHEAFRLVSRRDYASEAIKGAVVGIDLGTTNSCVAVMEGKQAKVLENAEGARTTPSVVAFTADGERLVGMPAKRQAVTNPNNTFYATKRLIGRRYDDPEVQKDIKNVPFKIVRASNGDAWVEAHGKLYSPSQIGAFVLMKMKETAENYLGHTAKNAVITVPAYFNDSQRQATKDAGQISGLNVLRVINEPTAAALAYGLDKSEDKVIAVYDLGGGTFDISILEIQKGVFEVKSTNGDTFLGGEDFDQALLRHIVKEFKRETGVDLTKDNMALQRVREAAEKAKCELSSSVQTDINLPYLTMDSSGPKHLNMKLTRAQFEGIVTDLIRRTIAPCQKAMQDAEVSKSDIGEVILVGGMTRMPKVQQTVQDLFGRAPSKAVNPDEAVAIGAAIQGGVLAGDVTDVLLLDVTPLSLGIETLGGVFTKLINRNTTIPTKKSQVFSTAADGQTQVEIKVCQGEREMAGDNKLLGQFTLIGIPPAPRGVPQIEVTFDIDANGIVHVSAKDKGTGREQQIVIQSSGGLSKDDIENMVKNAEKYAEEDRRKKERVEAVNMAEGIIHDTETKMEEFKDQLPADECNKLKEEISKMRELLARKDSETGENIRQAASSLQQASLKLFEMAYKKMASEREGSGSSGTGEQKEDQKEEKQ

Key:
Assay in all cases: log2 fold change, soluble protein after heating vs DMSO (PISA); higher = thermal stabilisation; K562 lysate, 10 uM; active = over 0.2 and 3.5 SD of the protein, either way, in both replicates (recomputed)
[1] = compound: NCC(=O)Nc1ccc(-n2nc(C(F)(F)F)cc2-c2ccc3c(ccc4ccccc43)c2)cc1
In short: (§1)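 The values are log-two fold changes in thermal stability compared with solvent controls and come from duplicates. They were obtained by TMTpro 16plex LC-MS/MS, with channel sums equalised, on the supernatant after 21,000xg for 90 min. That supernatant came from crude K562 extract at 1 mg/mL protein treated with 10 μM compound for 30 min, heated for 3 min across 48°C-58°C, pooled and brought to 0.5% NP-40 at 4°C.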

vorinostat = compound: O=C(CCCCCCC(=O)Nc1ccccc1)NO [vorinostat]
In short: as §1

silmitasertib = compound: O=C(O)c1ccc2c(c1)nc(Nc1cccc(Cl)c1)c1ccncc12 [silmitasertib]
In short: as §1

[2] = compound: O=C1NC(=O)C(c2cnc3ccccn23)=C1c1cn2c3c(cc(F)cc13)CN(C(=O)N1CCCCC1)CC2
In short: as §1

entospletinib = compound: c1cn2cc(-c3ccc4cn[nH]c4c3)nc(Nc3ccc(N4CCOCC4)cc3)c2n1 [entospletinib]
In short: as §1

Measured: log2 fold change

IGHG1 (UniProt P01857)
inactive: [1] -0.13 | vorinostat 0.164 | silmitasertib -0.314 | [2] 0.565

IDH3G (UniProt P51553)
inactive: [1] -0.069 | vorinostat 0.083 | silmitasertib 0.006 | [2] 0.015 | entospletinib 0.002

IDE, A0A3B3ISG5
inactive: [1] 0.008 | vorinostat 0.073 | silmitasertib -0.011 | [2] -0.023 | entospletinib 0.004

INPP5K (UniProt Q9BT40)
inactive: [1] -0.117 | vorinostat -0.213 | silmitasertib -0.002 | [2] -0.025 | entospletinib -0.029

ID1 (UniProt P41134)
inactive: [1] -0.124 | vorinostat 0.059 | silmitasertib -0.015 | [2] -0.039

IBTK (UniProt Q9P2D0)
inactive: [1] 0.054 | vorinostat -0.052 | silmitasertib -0.02 | [2] -0.015 | entospletinib -0.009

ILVBL (UniProt A1L0T0)
inactive: [1] 0.033 | vorinostat 0.033 | silmitasertib 0 | [2] 0.007 | entospletinib 0.004

IFT172 (UniProt Q9UG01)
inactive: [1] 0.068 | vorinostat -0.42 | silmitasertib -0.1

HTR1F (UniProt P30939)
inactive: [1] 0.071

Copied from above (3 entries):
IBTK (UniProt Q9P2D0)
inactive: [1] 0.054 | vorinostat -0.052 | silmitasertib -0.02 | [2] -0.015 | entospletinib -0.009

ILVBL (UniProt A1L0T0)
inactive: [1] 0.033 | vorinostat 0.033 | silmitasertib 0 | [2] 0.007 | entospletinib 0.004

IFT172 (UniProt Q9UG01)
inactive: [1] 0.068 | vorinostat -0.42 | silmitasertib -0.1

Later entries:

IDH2 (UniProt P48735)
inactive: [1] -0.01 | vorinostat -0.194 | silmitasertib 0.051 | [2] -0.004 | entospletinib 0.05

INIP (UniProt Q9NRY2)
inactive: [1] -0.134 | vorinostat 0.362 | silmitasertib 0.063

IMMT (UniProt C9J406)
inactive: [1] -0.084 | vorinostat 0.174 | silmitasertib 0.092 | [2] -0.002 | entospletinib -0.172

HSPE1 (UniProt P61604)
inactive: [1] -0.076 | vorinostat 0.143 | silmitasertib 0.002 | [2] -0.004 | entospletinib -0.037

INTS1 (UniProt Q8N201)
active: vorinostat -0.409
inactive: [1] 0.014 | silmitasertib 0.027 | [2] -0.034 | entospletinib 0.003

INTS11 (UniProt Q5TA45)
inactive: [1] -0.012 | vorinostat -0.111 | silmitasertib 0.028 | [2] -0.006 | entospletinib 0.025

ICA1 (UniProt Q05084)
inactive: [1] -0.012 | vorinostat -0.17 | silmitasertib 0.008 | [2] 0.016 | entospletinib -0.007

INTS12 (UniProt Q96CB8)
inactive: [1] 0.018 | vorinostat -0.156 | silmitasertib -0.046 | [2] -0.035 | entospletinib -0.017

IFT80 isoform 3 (UniProt Q9P2H3)
inactive: [1] 0.197 | vorinostat -0.021 | silmitasertib 0.098 | [2] -0.007 | entospletinib -0.033

IFI35 isoform 2 (UniProt P80217)
inactive: [1] 0.003 | vorinostat 0.059 | silmitasertib -0.023 | [2] -0.014 | entospletinib -0.006

INPP1 (UniProt P49441)
inactive: [1] -0.017 | vorinostat -0.014 | silmitasertib 0.028 | [2] -0.021 | entospletinib 0.079

HUWE1 (UniProt Q7Z6Z7)
inactive: [1] 0.011 | vorinostat -0.035 | silmitasertib 0.004 | [2] -0.009 | entospletinib 0.003

HSPBP1 (UniProt Q9NZL4)
inactive: [1] 0.013 | vorinostat -0.039 | silmitasertib 0.005 | [2] -0.002 | entospletinib 0.009

IKZF1 (UniProt Q13422)
inactive: [1] 0.003 | vorinostat -0.004 | silmitasertib -0.012 | [2] 0.005 | entospletinib 0

ICAM5 (UniProt Q9UMF0)
inactive: [1] -0.013 | vorinostat 0.059 | silmitasertib -0.034 | [2] -0.013 | entospletinib -0.017

ILF3 isoform 7 (UniProt Q12906)
inactive: [1] 0.004 | vorinostat 0.092 | silmitasertib 0.005 | [2] 0.026 | entospletinib -0.005

IGSF3 (UniProt O75054)
inactive: [1] 0.001 | vorinostat 0.131 | silmitasertib 0.098 | [2] 0.01 | entospletinib 0.006

IARS2 (UniProt Q9NSE4)
inactive: [1] -0.002 | vorinostat 0.079 | silmitasertib -0.01 | [2] -0.021 | entospletinib 0.01

HSPA8 (UniProt E9PK54)
inactive: [1] 0.068 | vorinostat -0.004 | silmitasertib -0.037 | [2] -0.022 | entospletinib 0.012

IMP3 (UniProt Q9NV31)
inactive: [1] 0.091 | vorinostat -0.048 | silmitasertib 0.064 | [2] 0.1 | entospletinib 0.035

IGF2BP2 (UniProt Q9Y6M1)
inactive: [1] -0.016 | silmitasertib 0.088 | [2] 0 | entospletinib 0.026
active: vorinostat -0.239

HTATIP2 isoform 3 (UniProt Q9BUP3)
inactive: [1] 0.023 | vorinostat -0.245 | silmitasertib 0.047 | [2] -0.02 | entospletinib 0.007

IMPA1 isoform 3 (UniProt P29218)
inactive: [1] 0.011 | vorinostat 0.11 | silmitasertib -0.013 | [2] -0.011 | entospletinib -0.005

ILRUN (UniProt Q9H6K1)
inactive: [1] 0.002 | vorinostat -0.047 | silmitasertib 0.001 | [2] -0.01 | entospletinib -0.013

HSPA8 (UniProt P11142)
inactive: [1] -0.008 | vorinostat 0.105 | silmitasertib -0.009 | [2] -0.011 | entospletinib -0.002

IMPDH2 (UniProt P12268)
inactive: [1] 0.002 | silmitasertib 0.004 | [2] 0.004 | entospletinib 0.014
active: vorinostat -1.14

ILK (UniProt Q13418)
active: vorinostat -0.343
inactive: [1] -0.047 | silmitasertib 0.086 | [2] 0.019 | entospletinib 0.096

IMMP2L (UniProt Q96T52)
inactive: [1] 0.047 | vorinostat -0.095 | silmitasertib -0.183 | [2] -0.064 | entospletinib 0.059

HYOU1 (UniProt Q9Y4L1)
inactive: [1] 0.031 | vorinostat 0.069 | silmitasertib -0.013 | [2] 0.008 | entospletinib -0.006

IFT74 (UniProt Q96LB3)
inactive: [1] 0.071 | vorinostat 0.095 | silmitasertib -0.023 | [2] 0.062 | entospletinib 0.041

INTS10 (UniProt Q9NVR2)
active: vorinostat -0.438
inactive: [1] 0.027 | silmitasertib 0.047 | [2] 0.002 | entospletinib 0.006

HSPA9 (UniProt P38646)
inactive: [1] 0.015 | vorinostat 0.055 | silmitasertib -0.004 | [2] -0.009 | entospletinib -0.015

IFITM3 (UniProt Q01628)
inactive: [1] -0.02 | vorinostat 0.067 | silmitasertib -0.129 | [2] 0.069 | entospletinib 0.059

INPPL1 (UniProt O15357)
inactive: [1] 0.025 | silmitasertib 0.057 | [2] 0.017 | entospletinib -0.015
active: vorinostat -0.528

HTT (UniProt P42858)
inactive: [1] -0.029 | silmitasertib 0.04 | [2] 0 | entospletinib -0.042
active: vorinostat -0.331

IFRD2 isoform 2 (UniProt Q12894)
inactive: [1] 0.038 | vorinostat 0.188 | silmitasertib -0.043 | [2] 0.037 | entospletinib 0.004

Fetched one by one from the list above, 2 records:
HTT (UniProt P42858)
inactive: [1] -0.029 | silmitasertib 0.04 | [2] 0 | entospletinib -0.042
active: vorinostat -0.331

IFRD2 isoform 2 (UniProt Q12894)
inactive: [1] 0.038 | vorinostat 0.188 | silmitasertib -0.043 | [2] 0.037 | entospletinib 0.004

(cont.)

HSPH1 (UniProt Q92598)
inactive: [1] -0.011 | vorinostat -0.122 | silmitasertib 0.005 | [2] -0.023 | entospletinib -0.01

IGSF8 (UniProt Q969P0)
inactive: [1] 0.084 | vorinostat 0.075 | silmitasertib 0.033 | [2] 0.074 | entospletinib 0.117

IFNGR1 (UniProt P15260)
inactive: [1] 0.15 | vorinostat 0.147 | silmitasertib -0.006 | [2] 0.046 | entospletinib -0.042

IFI30 (UniProt P13284)
inactive: [1] 0.008 | vorinostat 0.014 | silmitasertib -0.024 | [2] 0.046 | entospletinib -0.017

ICAM1 (UniProt P05362)
inactive: [1] 0.022 | vorinostat 0.072 | silmitasertib -0.004 | [2] 0.018 | entospletinib 0.009

IGF2BP3 (UniProt O00425)
active: vorinostat -0.305
inactive: [1] -0.012 | silmitasertib 0.025 | [2] 0 | entospletinib 0.006

IKBKG isoform 2 (UniProt Q9Y6K9)
inactive: [1] 0.008 | vorinostat 0.036 | silmitasertib 0.035 | [2] 0.053 | entospletinib -0.001

IKBKB (UniProt O14920)
inactive: [1] -0.024 | vorinostat -0.203 | silmitasertib 0.075 | [2] -0.035 | entospletinib 0.009

IMMT (UniProt Q16891)
inactive: [1] -0.005 | vorinostat 0.056 | silmitasertib 0.033 | [2] 0.016 | entospletinib 0.017

IGLC3 (UniProt P0DOY3)
inactive: vorinostat 0.056 | silmitasertib -0.035
